# Measured values published in PubChem BioAssay (EPA / NIEHS).
# Protein sequences, listed by entry. Tags and fused reporters are not part of them. Lines headed by an entry give the natural chain unless they say otherwise; changes in a name come on top.
# UniProt P07727: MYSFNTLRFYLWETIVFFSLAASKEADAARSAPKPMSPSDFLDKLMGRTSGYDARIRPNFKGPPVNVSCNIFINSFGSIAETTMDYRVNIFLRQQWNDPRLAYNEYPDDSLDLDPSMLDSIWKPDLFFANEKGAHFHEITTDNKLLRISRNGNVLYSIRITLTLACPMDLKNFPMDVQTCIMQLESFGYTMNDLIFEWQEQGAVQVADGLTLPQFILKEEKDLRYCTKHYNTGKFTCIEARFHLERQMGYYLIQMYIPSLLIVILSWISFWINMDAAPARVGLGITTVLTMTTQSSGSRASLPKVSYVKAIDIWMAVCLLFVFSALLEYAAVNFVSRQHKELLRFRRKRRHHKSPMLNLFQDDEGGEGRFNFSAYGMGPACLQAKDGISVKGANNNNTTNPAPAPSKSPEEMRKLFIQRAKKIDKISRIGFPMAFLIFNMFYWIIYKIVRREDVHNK
# UniProt O97775: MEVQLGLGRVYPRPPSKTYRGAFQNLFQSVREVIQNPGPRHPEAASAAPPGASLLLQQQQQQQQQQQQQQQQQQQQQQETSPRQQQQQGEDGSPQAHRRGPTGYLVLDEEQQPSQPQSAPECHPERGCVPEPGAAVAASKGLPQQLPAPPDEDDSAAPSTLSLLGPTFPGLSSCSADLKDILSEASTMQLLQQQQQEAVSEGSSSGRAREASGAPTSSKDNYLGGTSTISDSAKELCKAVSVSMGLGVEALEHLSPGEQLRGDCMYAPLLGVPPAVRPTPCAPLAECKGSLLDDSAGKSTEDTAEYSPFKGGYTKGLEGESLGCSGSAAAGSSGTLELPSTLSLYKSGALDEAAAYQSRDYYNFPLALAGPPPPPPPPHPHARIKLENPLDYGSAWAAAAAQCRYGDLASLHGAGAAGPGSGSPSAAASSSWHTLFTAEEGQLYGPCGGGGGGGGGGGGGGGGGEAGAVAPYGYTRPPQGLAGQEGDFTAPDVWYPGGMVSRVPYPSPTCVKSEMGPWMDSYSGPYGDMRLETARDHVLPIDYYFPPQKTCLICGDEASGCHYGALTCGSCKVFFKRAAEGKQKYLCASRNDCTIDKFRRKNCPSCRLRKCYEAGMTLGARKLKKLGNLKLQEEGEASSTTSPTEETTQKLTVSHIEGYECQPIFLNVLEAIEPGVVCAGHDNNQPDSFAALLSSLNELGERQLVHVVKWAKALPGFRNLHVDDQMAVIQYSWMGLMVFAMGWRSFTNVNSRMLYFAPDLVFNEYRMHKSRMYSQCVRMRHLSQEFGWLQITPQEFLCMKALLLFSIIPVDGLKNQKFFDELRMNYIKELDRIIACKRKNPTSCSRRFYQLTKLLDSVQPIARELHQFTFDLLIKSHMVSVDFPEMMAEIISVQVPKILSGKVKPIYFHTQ
# UniProt P03372, whole entry, looked up: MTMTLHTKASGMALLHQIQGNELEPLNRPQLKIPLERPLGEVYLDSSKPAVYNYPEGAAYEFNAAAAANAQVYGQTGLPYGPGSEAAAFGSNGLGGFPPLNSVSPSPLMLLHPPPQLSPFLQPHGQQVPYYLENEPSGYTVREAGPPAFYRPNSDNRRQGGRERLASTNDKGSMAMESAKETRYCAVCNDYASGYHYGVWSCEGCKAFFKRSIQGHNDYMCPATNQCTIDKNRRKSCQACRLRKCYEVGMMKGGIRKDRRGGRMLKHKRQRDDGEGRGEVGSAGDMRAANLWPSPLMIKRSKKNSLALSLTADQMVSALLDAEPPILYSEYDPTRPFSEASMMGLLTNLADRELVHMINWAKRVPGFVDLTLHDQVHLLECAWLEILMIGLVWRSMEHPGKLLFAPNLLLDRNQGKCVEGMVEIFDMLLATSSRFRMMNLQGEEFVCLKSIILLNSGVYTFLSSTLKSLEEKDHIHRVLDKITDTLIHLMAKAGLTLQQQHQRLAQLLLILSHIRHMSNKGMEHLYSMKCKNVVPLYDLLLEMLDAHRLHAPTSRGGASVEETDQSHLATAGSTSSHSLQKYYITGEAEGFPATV
# UniProt P49884, whole entry, looked up: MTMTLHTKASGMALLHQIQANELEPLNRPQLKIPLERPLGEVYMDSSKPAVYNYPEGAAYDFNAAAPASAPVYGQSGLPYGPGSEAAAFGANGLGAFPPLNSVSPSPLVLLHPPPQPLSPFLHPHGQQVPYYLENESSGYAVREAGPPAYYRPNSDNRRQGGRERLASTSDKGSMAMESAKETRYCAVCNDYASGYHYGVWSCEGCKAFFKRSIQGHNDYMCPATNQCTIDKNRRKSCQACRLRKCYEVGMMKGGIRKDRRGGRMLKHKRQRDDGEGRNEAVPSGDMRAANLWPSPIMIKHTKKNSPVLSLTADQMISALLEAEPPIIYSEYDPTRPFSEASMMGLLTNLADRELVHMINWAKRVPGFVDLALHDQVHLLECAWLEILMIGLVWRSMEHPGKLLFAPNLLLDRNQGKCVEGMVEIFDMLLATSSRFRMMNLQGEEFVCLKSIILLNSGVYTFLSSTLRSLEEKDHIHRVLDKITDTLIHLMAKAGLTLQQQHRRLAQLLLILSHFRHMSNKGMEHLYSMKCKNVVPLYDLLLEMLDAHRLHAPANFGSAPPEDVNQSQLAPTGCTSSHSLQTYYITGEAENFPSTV
# UniProt Q96RI1: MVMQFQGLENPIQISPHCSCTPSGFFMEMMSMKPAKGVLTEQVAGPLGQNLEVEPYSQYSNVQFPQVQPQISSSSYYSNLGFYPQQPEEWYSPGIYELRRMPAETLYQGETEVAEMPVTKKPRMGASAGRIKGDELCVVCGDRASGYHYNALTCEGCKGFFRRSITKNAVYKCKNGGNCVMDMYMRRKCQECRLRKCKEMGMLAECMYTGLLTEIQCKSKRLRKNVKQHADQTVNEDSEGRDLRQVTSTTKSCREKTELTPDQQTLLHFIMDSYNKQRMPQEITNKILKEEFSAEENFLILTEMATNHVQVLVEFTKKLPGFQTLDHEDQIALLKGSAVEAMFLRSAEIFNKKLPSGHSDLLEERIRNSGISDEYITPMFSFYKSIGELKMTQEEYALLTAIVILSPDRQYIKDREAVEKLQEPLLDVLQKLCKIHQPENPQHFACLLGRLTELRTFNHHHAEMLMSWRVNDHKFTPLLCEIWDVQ
# This list was built around the results that the source calls inconclusive (neither active nor inactive); the mix of calls is not that of the screen. For some of these results: A potency beside an inconclusive call is a rough fit, not a confirmed value. Activity calls are given as the source filed them. Rule for the calls: active = hit-call score of the fitted dose curve at least 0.9, where 1 is the maximum; inconclusive = response in the unintended direction; inactive = score below 0.9.
# What was measured:
# [1] = biological target: rat Glycine Receptor, Strychnine-sensitive (GlyRStrySens), Glra1 (gene 25674) (UniProt P07727); assay: NVS_LGIC_rGlyRStrySens: NovaScreen (NVS) Ligand-Gated Ion Channel Assay for rat Glycine Receptor, Strychnine-sensitive (GlyRStrySens) (AID 2283341)
# Procedure, shortened: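 Radioligand displacement on rat spinal cord membranes, 1 hr, filter scintillation read-out. Single-concentration duplicate screen at 25 uM; chemicals meeting threshold (e.g., 30% inhibition) rerun in concentration-response up to 50 uM. Loss of binding fitted versus DMSO.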
# [2] = biological target: rat Glutamate, MK-801 Agonist Site (GluNMDA_MK801), Grin1 (gene 24408) (UniProt P35439); assay: NVS_LGIC_rGluNMDA_MK801_Agonist: NovaScreen (NVS) Ligand-Gated Ion Channel Assay for rat Glutamate, MK-801 Agonist Site (GluNMDA_MK801) (AID 2283340)
# Procedure, shortened: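 Radioligand binding at MK-801 site in rat forebrain membranes, 1.5 h incubation, filter-based scintillation counting. Initially 25 uM in duplicate; actives then run in concentration-response up to 50 uM, fitted for gain of signal versus DMSO.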
# [3] = biological target: chimpanzee Androgen Receptor (AR), AR (gene 747460) (UniProt O97775); assay: NVS_NR_cAR: NovaScreen (NVS) Nuclear Receptor Binding Assay for chimpanzee Androgen Receptor (AR) (AID 2283346);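 note: radioligand displacement from AR measured by scintillation counting in a cell-free assay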
# Procedure, shortened: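 Cell-free radioligand displacement using receptor protein extracted from Sf9/Sf21 cells; bound radioligand measured by scintillation counting 72 hours after chemical dosing. Loss of signal versus DMSO baseline indicates binding; primary screen single-concentration in duplicate at 25 uM, actives followed in concentration series.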
# [4] = biological target: Estrogen receptor (Homo sapiens) (UniProt P03372); assay: NVS_NR_hER: NovaScreen (NVS) Nuclear Receptor Binding Assay for human Estrogen Receptor (ER) (AID 2283348)
# Procedure, shortened: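 Cell-free radioligand binding with protein extracted from MCF7 cells; scintillation counting 18 hours after dosing. Loss of signal versus DMSO baseline read as displacement; primary single-concentration screen at 25 uM in duplicate, actives retested in concentration series.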
# [5] = tested on: guinea pig Histamine Receptor (H2), gene 100729734; assay: NVS_GPCR_gH2: NovaScreen (NVS) G Protein-Coupled Receptor Assay for guinea pig Histamine Receptor (H2) (AID 2283342)
# Procedure, shortened: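 Radioligand displacement on guinea pig striatal membranes, 1 h after dosing, filter-based scintillation counting; loss of signal versus DMSO. Single-point screen at 25 uM in duplicate, then concentration-response up to 50 uM.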
# NCBI gene 100848466 = assay: NVS_NR_bPR: NovaScreen (NVS) Nuclear Receptor Binding Assay for bovine Progextron Receptor (PR) (AID 2283343);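 for AC50: actives lower bound radioligand signal below DMSO meaning displacement of the label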
# Procedure, shortened: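 Bovine uterine membrane preparation, cell-free; radioligand competitive displacement measured by scintillation counting 18 hours after dosing. Loss of signal versus DMSO baseline indicates binding; primary HTS single concentration 25 uM in duplicate, actives followed in concentration series.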
# [6] = biological target: bovine Estrogen Receptor (ER), ESR1 (gene 407238) (UniProt P49884); assay: NVS_NR_bER: NovaScreen (NVS) Nuclear Receptor Binding Assay for bovine Estrogen Receptor (ER) (AID 2283345);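 note: actives lower the bound radioligand count which means they displace the ER ligand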
# Procedure, shortened: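 Scintillation counting of displaced radioligand gave the readout; bovine uterine membrane extract supplied the receptor. Measured 18 h post-dose, normalized to DMSO baseline. Single 25 uM duplicate screen preceded concentration-response follow-up.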
# [7] = biological target: Bile acid receptor (Homo sapiens) (UniProt Q96RI1); assay: NVS_NR_hFXR_Agonist: NovaScreen (NVS) Nuclear Receptor Binding Assay for human Farnesoid X Receptor Agonism (FXR) (AID 2283347)
# Procedure, shortened: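 Cell-free TR-FRET binding assay with extracted human FXR protein, agonist format, read 1 h after dosing. Primary screen at 25 uM single concentration in duplicate, actives retested in concentration series; gain of signal versus DMSO.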
structure (smiles),measurement,setting,value
CCc1nc(N)nc(N)c1-c1ccc(Cl)cc1,AC50,[1],active: 2.7 µM
N=C(N)c1ccc(OCCCCCOc2ccc(C(=N)N)cc2)cc1,AC50,[2],active: 35.8 µM
same,AC50,[3],inconclusive: 21.9 µM
same,outcome,[4],inactive
NC(=Nc1ccccc1)Nc1ccccc1,AC50,[2],inconclusive: 4.96 µM
same,AC50,[5],inconclusive: 25 µM
N#CSCSc1nc2ccccc2s1,outcome,NCBI gene 100848466,inactive
CC[C@H](NC(=O)c1cc(F)ccc1NS(=O)(=O)c1cccc2cccnc12)c1ccccc1,AC50,[5],inconclusive: 40.4 µM
same,outcome,[6],inactive
same,outcome,[4],inactive
CC(C)C(=O)Nc1ccc([N+](=O)[O-])c(C(F)(F)F)c1,outcome,NCBI gene 100848466,inactive
same,AC50,[6],inconclusive: 25 µM
same,outcome,[4],inactive
O=P(OC(CCl)CCl)(OC(CCl)CCl)OC(CCl)CCl,AC50,NCBI gene 100848466,active: 8.22 µM
same,AC50,[6],inconclusive: 6.82 µM
NCc1cccc(C2CCN(C(=O)c3ccc(C#Cc4ccccc4F)o3)CC2)c1,AC50,[2],active: 39.9 µM
same,outcome,[1],inactive
same,AC50,[6],inconclusive: 0.0861 µM
CCN(CC)CCOc1ccc(C(=C(Cl)c2ccccc2)c2ccccc2)cc1,AC50,NCBI gene 100848466,active: 11.6 µM
same,AC50,[7],inconclusive: 21 µM
same,outcome,[7],inactive
CS(=O)(=O)OCCCCOS(C)(=O)=O,AC50,[5],inconclusive: 25 µM
COc1ccc2cc(S(=O)(=O)N[C@H](CC(=O)N[C@H](Cc3ccc(CN4[C@H](C)CCC[C@@H]4C)cc3)C(=O)N(C)C(C)C)c3ccc4c(c3)OCO4)ccc2c1,outcome,[2],inactive
same,AC50,[1],active: 0.128 µM
same,AC50,[4],inconclusive: 211 nM
COC(=O)c1ccccc1C(=O)O,AC50,NCBI gene 100848466,inconclusive: 25 µM
same,AC50,[6],inconclusive: 0.323 µM
same,AC50,[4],inconclusive: 964 nM

# As a short view, part of the list above:
structure (smiles),measurement,setting,value
CCN(CC)CCOc1ccc(C(=C(Cl)c2ccccc2)c2ccccc2)cc1,AC50,[7],inconclusive: 21 µM
same,outcome,[7],inactive
CS(=O)(=O)OCCCCOS(C)(=O)=O,AC50,[5],inconclusive: 25 µM
COc1ccc2cc(S(=O)(=O)N[C@H](CC(=O)N[C@H](Cc3ccc(CN4[C@H](C)CCC[C@@H]4C)cc3)C(=O)N(C)C(C)C)c3ccc4c(c3)OCO4)ccc2c1,outcome,[2],inactive
same,AC50,[1],active: 0.128 µM
same,AC50,[4],inconclusive: 211 nM
COC(=O)c1ccccc1C(=O)O,AC50,NCBI gene 100848466,inconclusive: 25 µM
